Results are given in words; binding and its absence hold for the method and conditions named. In cells and extracts the contact can be indirect. Some entries that bind do so weakly or less than the wild type. For some assays here: Where a sequence is shown, tags or fusion partners need not be part of it.

The chains behind the UniProt entries cited, without tags or fusion partners.
UniProt Q92831: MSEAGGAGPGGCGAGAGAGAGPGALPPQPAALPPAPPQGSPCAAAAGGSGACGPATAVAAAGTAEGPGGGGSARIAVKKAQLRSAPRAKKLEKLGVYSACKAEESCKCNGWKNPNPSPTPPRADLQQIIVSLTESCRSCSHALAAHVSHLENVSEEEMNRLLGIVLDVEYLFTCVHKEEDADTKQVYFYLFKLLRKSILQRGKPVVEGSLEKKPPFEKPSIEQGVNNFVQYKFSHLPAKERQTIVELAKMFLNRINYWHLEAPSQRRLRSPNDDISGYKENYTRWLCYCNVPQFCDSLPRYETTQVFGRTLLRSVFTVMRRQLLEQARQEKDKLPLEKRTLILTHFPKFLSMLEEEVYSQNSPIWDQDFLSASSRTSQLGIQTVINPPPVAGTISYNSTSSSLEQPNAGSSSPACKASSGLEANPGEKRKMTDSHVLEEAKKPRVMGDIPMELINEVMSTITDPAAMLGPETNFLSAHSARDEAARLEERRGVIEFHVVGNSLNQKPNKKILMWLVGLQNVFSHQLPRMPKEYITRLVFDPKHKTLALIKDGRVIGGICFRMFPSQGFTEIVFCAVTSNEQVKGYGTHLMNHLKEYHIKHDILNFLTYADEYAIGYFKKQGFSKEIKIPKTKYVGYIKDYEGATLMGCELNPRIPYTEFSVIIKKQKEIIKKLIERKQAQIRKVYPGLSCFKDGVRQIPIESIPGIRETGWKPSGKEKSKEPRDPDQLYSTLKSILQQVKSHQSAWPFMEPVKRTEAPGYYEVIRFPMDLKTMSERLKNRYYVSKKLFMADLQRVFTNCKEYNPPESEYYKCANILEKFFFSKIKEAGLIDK

Results on 2 molecules are retold here after article PMC12009988.

Assay [1] concerns the target Ku80 (construct of the experiments with HDAC8, PCAF and CBX4 not stated) (UniProt P13010). The assay is described as follows: co-IP; co-IP with and without irradiation (Supplementary Fig. 3b).
Assay [2] has the same target. Description: co-IP; co-IP with DNase I treatment, with and without radiation exposure.

“p300-CBP-associated factor (PCAF) (from UniProt Q92831 1-832) (enzyme)”: the binding result in assay [1] is given as “binds”.

B1: HDAC8 (Histone deacetylase 8) (enzyme, UniProt Q9BY41 1-377)
chain: MEEPEEPADSGQSLVPVYIYSPEYVSMCDSLAKIPKRASMVHSLIEAYALHKQMRIVKPKVASMEEMATFHTDAYLQHLQKVSQEGDDDHPDSIEYGLGYDCPATEGIFDYAAAIGGATITAAQCLIDGMCKVAINWSGGWHHAKKDEASGFCYLNDAVLGILRLRRKFERILYVDLDLHHGDGVEDAFSFTSKVMTVSLHKFSPGFFPGTGDVSDVGLGKGRYYSVNVPIQDGIQDEKYYQICESVLKEVYQAFNPKAVVLQLGADTIAGDPMCSFNMTPVGIGKCLKYILQWQLATLILGGGGYNLANTARCWTYLTGVILGKTLSSEIPDHEFFTAYGPDYVLEITPSCRPDRNEPHRIQQILNYIKGNLKHVV
In the case of B1, the binding result in assay [2] is listed as “binds”.
